Earlier results as cited in patent US20130071871A1, “ENZYMATIC DETERMINATION OF LITHIUM IONS USING PHOSPHOGLUCOMUTASE” (SPECIALTY ASSAYS, INC., priority 2011, published 2013).
At least one structure is not confirmed: it was looked up by name or label, or the drawing left a doubt.

[Li] [Lithium]
serum level too low, no or little therapeutic effect observed: < 0.8 mmol/L
